Data as given in paper PMC10163288.
The list shows a part of the results.

B1: il10ra_site1_normal_mot_HHH_b2_07336_af2_000000224_0001_1_17_H_._HHH_b1_08450_af2_0001_0000600020_0000001_0 (protein)
chain: SSSSDLLHRVAELLRRASRLLFRGNPEEARKLIEEALELAEEAGDEKAKELLEHFLEALENSSSS
B2: il10ra_site1_normal_mot_HHH_b2_02693_af2_000000213_0001_19_35_H_._HHH_b2_00006_af2_0001_0000200009_0000001_0_af2pred_0001 (protein)
chain: SSSSDEEVEERVKELLEEAKRIEDEEEVLQILAEAARLAHELNDEELIHEVLRVAIELLRSSSSS
B3: il10ra_site1_sap_21_mot_HHH_b1_05254_000000006_0001_1_19_H_._HHH_b2_07794_af2_0001_0000600029_0000001_0_0001_af2pred_0001 (protein)
chain: SSSSDEEVEELIEELEELREHVSPEDRRFIELTLRMAKFVLEAGNPEVAKYLLEAALEAINSSSS
B4: il10ra_site1_sap_22_mot_HHH_b2_07569_000000265_0001_38_56_H_._HHH_b2_02901_0001_0000200009_0000001_0_0001 (protein)
chain: SSSSSDVEEEIRELLEEAKRIEDPEEAKEVIMRAAALAARLRDPHLSMEVIEVYAELNQRSSSSS
B5: il10ra_site1_sap_21_mot_HHH_b1_07380_000000129_0001_1_20_H_._HHH_b2_01666_0001_0000100006_0000002_0_0001 (protein)
chain: SSSSSDEEEEEVEELLEEAKRIEDPRELSKVLLKAVQIALESNDPELFEEVWEVAMKLFNSSSSS
B6: il10ra_site1_sap_9_mot_HHH_b1_00456_000000263_0001_1_17_H_._HHH_b2_06560_0001_0000300027_0000001_0_0001 (protein)
chain: SSSSDKEVLLEAARLLTKAFQIEDPEEARKVVEKALELAEEYNDEELARFIQRLLKTLEDSSSSS
B7: il10ra_site1_sap_21_mot_HHH_b2_05984_000000071_0001_38_52_H_._HHH_b1_08773_0001_0000300018_0000001_0_0001_af2pred_0001 (protein)
chain: SSSDETKEEVEKLLREVEELIEQGNEEEAHQLLLEAVLVAAKGNDEEAFRLVMELYLRLENSSSS
B8: il10ra_site1_normal_mot_HHH_b2_00622_af2_000000153_0001_40_57_H_._HHH_b1_08750_0001_0000700033_0000001_0_af2pred_0001 (protein)
chain: SSSSSSEEAKRVLEILIRAAKQIEDPEKAKLALRAAKLSAESAGDEELLEEIRQLLEELNSSSSS
B9: il10ra_site1_normal_mot_e1dd4851c59bc1cdde016f988f6856bd_0001_1_000000200_0001_16_31_H_._HEEHE_0473_0001_0000400018_0000001_0_af2pred_0001 (protein)
chain: DEEREVELALRFLARAAGVKSVEVTTENGEVTVTVENVSPEAKETIEAAVLALRALGLNVSFETR
B10: il10ra_site1_normal_mot_HHH_b1_04704_af2_000000076_0001_43_57_H_._HHH_b2_07817_0001_0000100008_0000001_0_af2pred_0001 (protein)
chain: SSSSSDVREIFERVKELIEEALQIEDPEEREEVLEEARELAEEGNNELLELAVEYVARRESSSSS
B11: il10ra_site1_sap_22_mot_HHH_b1_01307_000000115_0001_1_18_H_._HHH_b2_05711_0001_0000100007_0000001_0_0001 (protein)
chain: SSSSNLERSVKRMLEAIRELLEQGDPEYARLALRFAKAAAEAQNNEELRKEIEELEQEVNSSSSS
B12: il10ra_site1_sap_17_mot_HHH_b1_06789_af2_000000041_0001_1_20_H_._6a059796e6651356ca47b1ab8a1c6dcd_0001_0001_0000800021_0000001_0_0001 (protein)
chain: SSSSDEEELKELLEELRKLAEEGDEEKFLRLAMELLHLIAQLGDQEAFEELWRLIKEFAEKSSSS
B13: il10ra_site1_sap_23_mot_HHH_b1_05595_af2_000000085_0001_42_56_H_._HHH_b2_07888_af2_0001_0000200007_0000002_0_0001 (protein)
chain: SSSSEREEVLELIKRVFRLLLRGNQEEAERLLEEVERVAEENNDPELQRAVEILRQSVEANSSSS
B14: il10ra_site1_sap_17_mot_HHH_b1_05357_000000034_0001_23_39_H_._HHH_b2_02316_0001_0000400035_0000001_0_0001 (protein)
chain: SSSSDEEEEELEELIKQIEEAIKKNDRETALRLIIELIRLAFQARDPEALRAAWELAKKIESSSS
B15: il10ra_site1_sap_16_mot_HHH_b1_00999_000000080_0001_41_55_H_._HHH_b1_01870_0001_0000800024_0000001_0_0001 (protein)
chain: SSSSSSEEELEELIERLKEALEEGDEELIIELLLKLARLAVRLNDHEATRIIMEVAEKLRSSSSS
B16: il10ra_site1_sap_19_mot_HHH_b2_08144_af2_000000046_0001_38_52_H_._HHH_b2_04324_0001_0000300022_0000001_0_0001 (protein)
chain: SSSSTLEELTRAALRIAKQALEWGDPEAARLLLEALLQLLRNEGNEELVEEVEELLEEVRNSSSS
B17: il10ra_site1_sap_21_mot_HHH_b1_08325_000000134_0001_1_19_H_._HHH_b1_06728_0001_0000200010_0000002_0_0001 (protein)
chain: SSSSSSDVEEEVEELLEEAKHIEDPRKLTRLLQEAVRNAIQVGDPEVLREVWEVVHKLSSSSSSS
B18: il10ra_site1_sap_23_mot_ems_3hM_235_000000244_0001_46_64_H_._HHH_b2_04652_af2_0001_0000900062_0000001_0_0001 (protein)
chain: SSSSTRRRIYELSREAVELASEGNPEEAKEVLEEALELAEEAGNQVLLFVLRRVLELIEGSSSSS
B19: il10ra_site1_normal_mot_HHH_b2_08265_af2_000000206_0001_22_38_H_._HHH_b2_05887_0001_0000200025_0000002_0 (protein)
chain: SSSSSDEEEVEELTREIERLLEEGDLEEAARLIQELLRVAYENKDQEAIQLAWELAQLAKSSSSS
B20: il10ra_site1_sap_13_mot_HHH_b2_05686_000000041_0001_1_18_H_._HHH_b1_05792_0001_0000400018_0000002_0_0001 (protein)
chain: PERLEELKELLEKLNTPVARELLRLIEELEERGVPPNHILQRAVRYALRAGDEEVLRALWKVALK
B21: il10ra_site1_normal_mot_HHH_b2_00479_000000091_0001_1_12_H_._HHH_b2_05176_0001_0000200017_0000002_0 (protein)
chain: SSSSTEEFDELYRLARKALELRANGNPEEAEKVLEEAVELARELGDFATLFAIEHLLRILGSSSS
B22: il10ra_site1_normal_mot_HHH_b2_07569_000000265_0001_38_56_H_._HHH_b2_06565_0001_0000500047_0000002_0 (protein)
chain: SSSSSDETEEEVEELLEEAKHIEDPEELAEVLLEALQVALEEGDQELVQLVWEVIKRLFSSSSSS
B23: il10ra_site1_normal_mot_8756ee2cf497b5429c717dfc0c0bcfd6_0001_000000186_0001_1_13_H_._HHH_b1_04603_af2_0001_0000100008_0000001_1_af2pred_0001 (protein)
chain: SSSSTEEVQRLLRRVIELLNEGDKEEAEELLEEAKKLAEELGSEVLRAILEYLQELLERGSSSSS
B24: il10ra_site1_sap_21_mot_HHH_b1_07835_af2_000000063_0001_1_16_H_._HHH_eva_0501_0001_0000200017_0000001_0_0001 (protein)
chain: SSSSDEELQEALELSIKAFRAALRGDPEEAERLLERALELAERLGDERLAEQIRQLLEALGSSSS
B25: il10ra_site1_sap_20_mot_745ba417a8ead33aea5db1974d5d2f48_0001_1_af2_000000024_0001_16_30_H_._HHH_b2_04807_0001_0000300035_0000001_0_0001 (protein)
chain: SSSSSEEVYELIRRVIELLSEGNREEAEELLEQLRKLIEEEGDPVMEFILRLLERMLELTSSSSS
B26: il10ra_site1_normal_mot_HHH_b2_00943_af2_000000149_0001_1_17_H_._HHH_b1_02469_0001_0000100005_0000001_0 (protein)
chain: SSSSDEEVEQLLVEAMELLEEGNPEEALKVLEEALELAEELGDEHARFLVRQALKALRRFLSSSS
B27: il10ra_site1_normal_mot_HHH_b2_07145_000000158_0001_24_40_H_._HHH_b1_06553_af2_0001_0000100008_0000001_0 (protein)
chain: SSSSSEELFRAAREAIEHAAELARSGDPEEARRLLEEVLEELEENNNQAALWSVRHLLRLISSSS
B28: il10ra_site1_sap_15_mot_HHH_b2_03438_af2_000000049_0001_18_34_H_._HHH_b1_00102_0001_0000200018_0000001_0_0001 (protein)
chain: SSSSTELIQRAFELLELLKELNDEENLIELARVLTKVVAEGDPELEKELEEVIKEIEEQVNSSSS
B29: il10ra_site1_sap_24_mot_HHH_b2_07346_af2_000000031_0001_38_52_H_._HHH_b1_02819_af2_0001_0000500023_0000002_0_0001 (protein)
chain: SSSSDEAREEVEKLLEEAEKAEEEGDHEAVLRLLLRAVQLAFHGKDEELLREVWRLVHELSSSSS
B30: il10ra_site1_normal_mot_a6c796b944619e241e020fd597ddb6da_0001_af2_000000092_0001_15_31_H_._HHH_b2_01456_af2_0001_0000600036_0000001_0_af2pred_0001 (protein)
chain: SSSSSSTRVEVEVRALLWFAKYSKNEEAVELALELARELAEENNDEELKELVEKVAEELSSSSSS
B31: il10ra_site1_sap_15_mot_HHH_b2_00440_af2_000000075_0001_42_56_H_._HHH_b2_04674_0001_0000300032_0000001_0_0001 (protein)
chain: SSSSDTLEWSVRFALRVVEELAKLGDPEHARALLRALEHVLRQAGDEELLREVEELLEEISSSSS
B32: il10ra_site1_normal_mot_HHH_b2_04275_000000272_0001_20_36_H_._HHH_b1_07500_0001_0000100002_0000002_0_af2pred_0001 (protein)
chain: SSSSSEEDEEIVKLLREVAEVHREGDEERAEELLEEIERLIEEANNEIARAIVEFLKKILSSSSS
B33: il10ra_site1_normal_mot_e1dd4851c59bc1cdde016f988f6856bd_0001_1_000000200_0001_16_31_H_._HEEHE_1920_af2_0001_0000700008_0000001_0 (protein)
chain: DEVEMLEISLRYVAEQLNVPSVEVEVRNGEVHIEIEGTDQAARELSEMARFQARALGVDVEVEVE
B34: il10ra_site1_normal_mot_HHH_b2_03745_000000022_0001_1_20_H_._HHH_b1_02987_0001_0000100010_0000001_0 (protein)
chain: SSSSTEVFERVRELVERIAELIRNGNPEEAEELIEEIEQLAKEYNNPVVEAAARALKRAVSSSSS
B35: il10ra_site1_sap_22_mot_HHH_b2_02736_000000092_0001_22_38_H_._HHH_b1_06841_0001_0000100008_0000001_0_0001 (protein)
chain: SSSSDRKERVIELIMRVARLLIRGDREEAEELLEEIRELVEKLGDEALERALEILEQAIKASSSS
B36: il10ra_site1_normal_mot_HHH_b2_02337_000000026_0001_38_52_H_._HHH_b1_06864_0001_0000200014_0000001_0 (protein)
chain: SSSSDLEEEIEELIRELERLLEEGDEEKFAEVAQRVVQHIYELGDPELLKQVWEIVQRFASSSSS
B37: il10ra_site1_sap_11_mot_HHH_b2_00943_af2_000000149_0001_1_17_H_._HHH_b1_02974_af2_0001_0000600040_0000002_0_0001 (protein)
chain: SSSSSELEREIRELLEELEEAAERGDEELVAKLALEILRLIYRLGDAELLRQLWRLFREAFSSSS

Molecular target: il10ra, Q13651
Assay: yeast display titration

Apparent Kd, inactive:
B1 no binding seen
B2 no binding seen
B3 no binding seen
B4 no binding seen
B5 no binding seen
B6 no binding seen
B7 no binding seen
B8 no binding seen
B9 no binding seen
B10 no binding seen
B11 no binding seen
B12 no binding seen
B13 no binding seen
B14 no binding seen
B15 no binding seen
B16 no binding seen
B17 no binding seen
B18 no binding seen
B19 no binding seen
B20 no binding seen
B21 no binding seen
B22 no binding seen
B23 no binding seen
B24 no binding seen
B25 no binding seen
B26 no binding seen
B27 no binding seen
B28 no binding seen
B29 no binding seen
B30 no binding seen
B31 no binding seen
B32 no binding seen
B33 > 697 nM
B34 no binding seen
B35 no binding seen
B36 no binding seen
B37 no binding seen

A portion from further up, as a working copy:
Apparent Kd, inactive:
B31 no binding seen
B32 no binding seen
